In all, about 360,000 compounds went through this assay and about 7,500 (2.1%) were called active. Inconclusive results, whose numbers are uncertain, are shown with a selection of clear calls. Calls follow the shape of the dose curve; as a rule, active = well fitted inhibition curve with a large enough effect; inconclusive = small, poorly fitted or top-dose-only effect, or effect the other way; inactive = flat fitted curve, though single readings scatter. Potencies of inconclusive entries are doubtful fits and often do not repeat.
experiment: Nrf2 qHTS screen for inhibitors; conditions: A549 ARE-Fluc reporter, luciferase luminescence, 18-24 h; series mostly up to 46 µM; also: nearly all actives have a fitted effect of over 60% in size
Outline: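 In this cell-based qHTS, ARE-driven firefly luciferase in A549 cells reports Nrf2 activity; the luminescent signal after BugLite lysis is the measured value, with a prior CellTiter-Fluor read for cell health.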
Potency is read from the fitted curve at half-maximal effect.

SMILES | Potency
O=C(Cn1ncc2c3ccccc3n(Cc3cccc(Cl)c3)c2c1=O)NCc1ccccn1 | inconclusive: 0.146 µM [falling, full curve, poor fit]
Cc1ccc(NS(=O)(=O)c2ccc(-c3cc(C)no3)cc2)c(C)c1 | inconclusive: 23.1 µM [falling, partial curve]
CCCCCCc1nc2ccccc2c(=O)n1NC(=O)c1c(O)c2c(n(CC(C)C)c1=O)CCCC2 | active: 20.6 µM
CCC(NC(=O)CCc1c(C)c2cc3c4c(oc3cc2oc1=O)CCCC4)C(=O)O (stereo not given) | inconclusive: 3.66 µM [falling, full curve]
COc1cccc(C2c3cc4c(cc3OC(N3CCOCC3)C2C)OCO4)c1O (stereo not given) | inactive
Cc1nc2nc(NC(=O)c3ccco3)nn2c(C)c1Cl | inconclusive: 7.31 µM [activator, partial curve]
Cc1ccc(S(=O)(=O)NC(CC(=O)NCC2CCCO2)c2ccco2)cc1 (stereo not given) | inconclusive: 20.6 µM [activator, single point]
CC1=C/C(=C(\c2cc(C)c(O)c(Br)c2)c2ccccc2S(=O)(=O)O)C=C(Br)C1=O | inconclusive: 18.4 µM [falling, single point]
Oc1cccc(-c2nc(-c3cccs3)c(-c3cccs3)[nH]2)c1 | inactive
N/C(=N\OC(=O)c1ccc(Cl)cc1)c1[nH]ncc1Br | inconclusive: 3.66 µM [activator, full curve]
COc1ccc(NS(=O)(=O)c2ccc(NC(=O)c3ccc(CN4CCOCC4)cc3)cc2)cc1 | inconclusive: 29.1 µM [falling, single point]
CCc1ccc(CNC(=O)c2ccc(-n3c(C)cc4c3CCC(C)C4)cc2)cc1 (stereo not given) | inactive
COc1cc(Br)c(C2CC(=O)Nc3cc4c(cc32)OCCO4)cc1OC (stereo not given) | inactive
O=C(N/N=C/c1ccccc1)c1[nH]c2ccc(Br)cc2c1-c1ccccc1 | inconclusive: 2.59 µM [activator, single point]
CCOC(=O)c1ccc(NC(=O)CC2C(=O)N(c3ccc(F)cc3)C(=O)N2CCC(C)C)cc1 (stereo not given) | inconclusive: 29.1 µM [falling, single point]
O=C(O)c1cc(Br)ccc1NS(=O)(=O)c1cccc2nsnc12 | inactive
COC(=O)c1ccc2c(=O)n(Cc3ccco3)c(SCC(=O)Nc3ccc(C)c(Cl)c3)nc2c1 | inconclusive: 23.1 µM [falling, single point]
CN(Cc1ccccc1)c1nc2c(c(=O)[nH]c(=O)n2C)n1CCCc1ccccc1 | inconclusive: 29.1 µM [falling, single point]
COc1ccc(-c2nn(-c3ccccc3)cc2/C=C2/SC(=S)N(CCC(=O)O)C2=O)cc1 | active: 23.1 µM
Cc1cccc(C)c1Nc1c(-c2ccccn2)nc2ccccn12 | inconclusive: 29.1 µM [falling, single point]

Some of the entries above in another layout:
SMILES,Potency
CCC(NC(=O)CCc1c(C)c2cc3c4c(oc3cc2oc1=O)CCCC4)C(=O)O (stereo not given),"inconclusive: 3.66 µM [falling, full curve]"
COc1cccc(C2c3cc4c(cc3OC(N3CCOCC3)C2C)OCO4)c1O (stereo not given),inactive

More structures:

SMILES | Potency
CCc1nn(CC(=O)NCCN(CC(C)C)CC(C)C)c(=O)c2cc3sc(C)cc3n12 | inactive
CCc1ccc(S(=O)(=O)Nc2c(NC3CCCCC3)c3ccccc3oc2=O)cc1 | active: 25.9 µM
Cc1cccc(N/C=C/c2onc(C)c2[N+](=O)[O-])c1 | inconclusive: 2.06 µM [activator, partial curve, poor fit]
O=C1N/C(=C/c2ccc(N3CCCC3)cc2)C(=O)N1c1ccccc1 | inconclusive: 1.84 µM [activator, full curve, poor fit]
COc1ccc(/C=N/NC(=O)c2cc(-c3ccccc3OC(C)C)nc3ccccc23)cc1CN1CCOCC1 | inconclusive: 29.1 µM [activator, single point]
COc1ccc(-n2cnc3c(N)nc(N)nc32)cc1 | inconclusive: 20.6 µM [activator, single point]
Cc1cc(C)c(C#N)c(N2CCN(CCOc3ccc(Cl)cc3)CC2)n1 | inconclusive: 18.4 µM [falling, single point]
c1ccc(-c2cc(-c3nnc4n3N=C(c3ccc5ccccc5c3)CS4)[nH]n2)cc1 | inconclusive: 23.1 µM [falling, single point]
O=C(CNS(=O)(=O)c1ccc2ccccc2c1)OCC(=O)c1ccc(Br)s1 | inconclusive: 5.8 µM [activator, full curve, poor fit]
O=C(Nc1cccc(F)c1)C1CCN(C(=O)N2CCOc3ccccc32)CC1 | inconclusive: 25.9 µM [falling, partial curve, poor fit]
Cc1ccc(CNC(=O)C2CCC(=O)N(Cc3ccc(Cl)cc3)C2)cc1F (stereo not given) | inconclusive: 29.1 µM [falling, single point]
CCCc1cc(=O)oc2cc(OCC(=O)Nc3ccccn3)ccc12 | inconclusive: 1.84 µM [activator, full curve]
O=C(Nc1ccc2c(c1)OCCO2)c1ccc(Cl)c(S(=O)(=O)N2CCCCC2)c1 | inconclusive: 29.1 µM [falling, single point]
CC(C)(C)NC(=O)NC(=O)CN1CCN(S(=O)(=O)c2ccc3c(c2)CCCC3)CC1 | inconclusive: 18.4 µM [falling, single point]
Cn1c(SCc2cccc(C#N)c2)nc2ccccc2c1=O | inconclusive: 23.1 µM [falling, partial curve, poor fit]
CCOc1ccc(CN(C)CC(=O)Nc2cccc(S(=O)(=O)N(C)c3ccccc3)c2)cc1 | inconclusive: 29.1 µM [falling, single point]
Nc1cccc(CCc2nc3cc4ccccc4cc3[nH]2)c1 | inconclusive: 6.51 µM [activator, partial curve]
CN(C)S(=O)(=O)Oc1ccsc1C(=O)Nc1ccc(Cl)c(Cl)c1 | inconclusive: 18.4 µM [falling, partial curve, poor fit]
O=C(Nc1ccc(F)cc1F)c1cc(CN2CCOCC2)on1 | inconclusive: 4.61 µM [activator, partial curve, poor fit]
Cn1ncc(Cl)c1C(=O)Nc1ccc2c(c1)CCC2 | inconclusive: 9.2 µM [activator, partial curve]

Reference: PubChem BioAssay AID504444 (National Center for Advancing Translational Sciences (NCATS), 2011)
